Positions count from the first letter of the chain named. Results are given in words; binding and its absence hold for the method and conditions named. In cells and extracts the contact can be indirect. These calls come from enrichment with a bait or labelling near it, and not all partners need be listed. Tags and fused reporters may be left off the sequences shown.
Assays:
Assay in all cases: affinity purification with mass spectrometry; crude mitochondria of rescue cell lines cross-linked with 0.5 mM DSSO (1 h, RT), quenched with Tris, solubilised with digitonin (6 g/g); FLAG immunoprecipitation of RTN4IP1-FLAG on magnetic anti-FLAG beads, on-bead tryptic digest, LC-MS; compared with WT(+GFP) mitochondria
[1] = biological target: T1, RTN4IP1-FLAG WT (Reticulon-4-interacting protein 1) (human) (UniProt Q8WWV3)
T1 sequence: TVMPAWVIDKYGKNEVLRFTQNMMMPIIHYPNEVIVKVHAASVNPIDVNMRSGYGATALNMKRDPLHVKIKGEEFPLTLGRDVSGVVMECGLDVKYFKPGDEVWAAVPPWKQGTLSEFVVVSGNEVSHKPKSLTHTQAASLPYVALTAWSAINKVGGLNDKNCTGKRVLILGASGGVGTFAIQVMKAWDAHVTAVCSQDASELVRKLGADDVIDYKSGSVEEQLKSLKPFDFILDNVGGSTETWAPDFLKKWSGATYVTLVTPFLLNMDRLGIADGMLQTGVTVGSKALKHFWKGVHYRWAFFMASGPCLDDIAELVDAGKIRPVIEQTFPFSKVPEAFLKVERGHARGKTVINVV

Sequences of proteins named here, by UniProt entry; tags and fusion partners are left off. Residues count along the entry.
UniProt P19404, residues 33-249: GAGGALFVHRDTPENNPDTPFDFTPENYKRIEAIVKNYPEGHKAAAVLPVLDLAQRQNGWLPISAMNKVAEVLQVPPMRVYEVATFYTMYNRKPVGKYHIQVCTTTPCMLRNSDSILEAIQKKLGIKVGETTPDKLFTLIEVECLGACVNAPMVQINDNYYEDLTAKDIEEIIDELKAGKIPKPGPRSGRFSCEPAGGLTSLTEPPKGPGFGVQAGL
UniProt P56181, residues 35-108: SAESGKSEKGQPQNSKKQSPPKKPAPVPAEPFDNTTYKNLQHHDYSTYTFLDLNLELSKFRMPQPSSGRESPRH

[2] = biological target: T2, RTN4IP1-FLAG G215A (human) (UniProt Q8WWV3)
T2 sequence: T1 sequence with G175A

[3] = biological target: T3, RTN4IP1-FLAG R103H (human) (UniProt Q8WWV3)
T3 sequence: T1 sequence with R63H

Measured: binding

NDUFV2 (CI N-module subunit) (from UniProt P19404 33-249)
binds: all assays above

NDUFV3 (CI N-module subunit) (from UniProt P56181 35-108)
binds: all assays above
